# Whole data set: some 33,000 sequences, median “E-score (-0.5 to 0.5)” near -0.0059, cut for the highest 2% near 0.26. Some of the results follow.
# Target: T1, Cin5 (UniProt P40917)
# T1 sequence: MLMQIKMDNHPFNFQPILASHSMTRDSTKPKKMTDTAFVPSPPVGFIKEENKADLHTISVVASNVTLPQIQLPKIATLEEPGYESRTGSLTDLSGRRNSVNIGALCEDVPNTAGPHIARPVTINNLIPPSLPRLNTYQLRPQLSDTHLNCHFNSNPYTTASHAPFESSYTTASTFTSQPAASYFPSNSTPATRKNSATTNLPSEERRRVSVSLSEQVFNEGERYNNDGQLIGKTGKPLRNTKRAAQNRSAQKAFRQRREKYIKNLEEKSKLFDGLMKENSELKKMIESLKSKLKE
# Test: PBM E-score (8-mer binding enrichment) (E-score (-0.5 to 0.5)); higher = stronger / more preferred TF binding
# Settings: protein concentration: 100 nM; construct: GST-full length
# Procedure, shortened: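 Each ungapped eight-base word and its reverse complement, pooled, received an E-score from the Universal PBM Analysis Suite. Underlying scans, normalised with masliner, recorded fluorescent anti-GST bound to GST-tagged yeast transcription factors. These were applied at about 100-200 nM to universal all-10-mer Agilent arrays double-stranded by primer extension.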
row,Sequence,PBM E-score
1,CAGTCAGA,-0.0354
2,ACAGAGCT,-0.259
3,CCGGGGGC,-0.345
4,CCGTATAA,0.0713
5,ATTAAGAA,-0.051
6,ACAGAGTA,-0.0123
7,GGGTACCA,-0.183
8,ATCGCCTA,-0.0335
9,GAGAAATA,0.158
10,AATAAGGC,0.0645
11,ATCCAGAA,0.00952
12,GGACCTCC,-0.271
13,ATTCTCCC,-0.0109
14,CAGTCTGA,-0.0198
15,CGGTCGAA,-0.0613
16,GCATTAGC,-0.0498
17,CTTTGAAC,-0.129
18,AAGTCAAG,-0.0178
19,CCATTCCG,0.0227
20,ATGTTCTG,-0.0006
21,TCAAACAA,0.0761
22,CACTTCAC,-0.0856
23,AGCGCAAC,0.0558
24,CGGATTGC,0.105
25,AATCTTAT,0.104

row,Sequence,PBM E-score
1,AACATGTA,0.216
2,TCTACAAA,-0.0653
3,AATGTAGT,0.125
4,ACTTGAGA,0.0805
5,ACCTTGGG,0.101
6,AGGTGGCG,-0.137
7,TGTGTGAA,0.0241
8,ACTTTCCG,0.157
9,AGCAATAC,0.189
10,ATCAATTA,0.317
11,CTAAGATA,0.168
12,CACCTCTC,-0.114
13,ATGTGTCG,0.125
14,CAGTTCGG,-0.0252
15,CGTGAGCC,-0.0209
16,GAGCCGGC,-0.137
17,TCATGAAA,0.0973
18,AGTTTATG,-0.00424
19,AACGAAAG,0.014
20,GGGGTGGA,-0.0549
21,CATTGGTC,-0.0877
22,CACAAATC,0.0238
23,AAAGTTCC,-0.117
24,GTTTTCGA,-0.0355
25,CAACAGTA,0.0302

# Three entries drawn at random from the list so far:
row,Sequence,PBM E-score
24,GTTTTCGA,-0.0355
9,GAGAAATA,0.158
8,ACTTTCCG,0.157

# More results

row,Sequence,PBM E-score
1,AATATTCA,0.24
2,AAGTCCCA,-0.177
3,CTGAGTGA,0.195
4,AGTAGATC,-0.0135
5,ATTCCCCG,0.151
6,CATTTGAG,0.0705
7,CACTGCTG,-0.0583
8,AATTTCAT,0.062
9,CGGGACCA,-0.163
10,ACCGACAA,0.0286
11,AAAAAGCG,0.0497
12,GGGGCTCA,-0.285
13,AAAGAAAT,0.241
14,CACTTACA,0.127
15,CCCTATCC,-0.137
16,GCTGTCGA,-0.0741
17,GTCGGAAA,0.213
18,GTGTACTA,0.0665
19,GCGCCGCC,-0.00584
20,ATTCTACG,0.0916
21,GTAAGGTA,0.0728
22,ACAGGTCA,-0.106
23,CTCGGGTA,-0.141
24,ACAGCGCC,-0.0832
25,AAGACCTA,-0.111

row,Sequence,PBM E-score
1,CGCCCGTC,-0.0048
2,AATACGGG,-0.0914
3,GAGTTCCC,-0.18
4,AGAGTATA,0.0252
5,ATGAGCCG,-0.0886
6,ACCTTCTG,0.112
7,AGAGGAAT,0.0108
8,GATGCGTA,0.0728
9,CAGTTCTC,-0.0187
10,ATGCCCTG,-0.12
11,CAAGCTTG,0.0243
12,ACATAATC,0.445
13,AGACTTTC,-0.0091
14,CTATCTCA,-0.00021
15,AAACCCCC,-0.466
16,GCGTATAA,0.133
17,GTAGACAA,0.12
18,CATATTCG,-0.0012
19,AGTTTGTC,0.0207
20,ACGGTATG,0.0664
21,AGTTACCG,0.02
22,ATCGCTAC,-0.00633
23,AAATCAAA,0.175
24,TGAACCAA,0.145
25,CTGATCCA,0.0973

row,Sequence,PBM E-score
1,ACATCAAG,0.155
2,ATCTATAG,0.0365
3,AACTCCGG,0.0824
4,GAGTGCTA,0.0563
5,CGCGCTCC,0.0914
6,GCGGGTCC,-0.257
7,CGTCCTTA,-0.216
8,GCTATTCC,-0.051
9,AACAAGCC,-0.13
10,AAAGAGCG,0.0467
11,GCCCCACA,-0.043
12,GAAGGAGC,-0.468
13,ACATCTGG,-0.00408
14,CTCCACGA,-0.211
15,ATGCCTTG,-0.0648
16,CCAGGGCG,-0.387
17,GAATTGAC,0.0301
18,AATATAGG,0.317
19,TCGAACAA,0.21
20,CGTGGGAC,-0.0734
21,CTGGCTCA,0.0435
22,ACCTCCTC,-0.208
23,GAATCTCC,-0.0861
24,CCCTTCTC,-0.306
25,CGCATCGC,-0.195

# Another view of some results above.
row | Sequence | PBM E-score
10 | ATGCCCTG | -0.12
5 | CGCGCTCC | 0.0914

# Next entries follow.

row,Sequence,PBM E-score
1,CCGAAAGA,0.0644
2,CTTGTGTA,0.184
3,ATTGATGG,0.159
4,CGACGGAG,0.0422
5,CACCGGTG,-0.184
6,CCTACGAA,-0.0315
7,GAAGGTCA,-0.153
8,CCGTTCAC,-0.0806
9,CAGCGCGG,0.107
10,ATCGTCGC,0.0797
11,ATCCTCCG,-0.187
12,CGACACTC,-0.0648
13,GACAATAA,0.19
14,CTAGTAAC,0.0514
15,GACCCGCA,-0.134
16,CCTACTCC,-0.0286
17,GCGCTCCA,-0.152
18,ACGTACTA,0.102
19,CGATTCTC,0.0299
20,GAGGGGAA,-0.0452
21,ATCAATGA,0.172
22,AGACCCCT,-0.186
23,GGCCCACC,-0.225
24,ACGGGCCC,-0.211
25,CGGACGAA,0.15

row,Sequence,PBM E-score
1,GGACTTGA,-0.23
2,ATTCTTGG,0.153
3,ATTAAACC,0.178
4,GTTAATGA,0.114
5,CGACAGCC,-0.0433
6,AAGACATC,-0.181
7,CACGCAGG,0.00917
8,TAGCGTCA,0.0184
9,CCGGCCGA,-0.195
10,CAGCCCCG,-0.0863
11,CCATAGCC,-0.165
12,CACTCTTC,-0.0303
13,ATCGGCAT,0.108
14,CAGTTGCA,-0.123
15,GTAGCAAA,0.126
16,CATGTTAC,0.131
17,ATAGCTGA,0.00854
18,GATTTCCA,0.0947
19,AAACCAGG,-0.0663
20,ACCCTCAC,-0.112
21,GGAAGATA,0.13
22,CGCACCTC,-0.183

# Reference: the supplement of paper PMC3334620
